PubChem BioAssay AID1259254 | NCATS, 2017

Purpose: 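Finding genes that stop cells copying their DNA twice in one cycle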 (primary screen)
System: human HCT116 colorectal cancer cells
Reagent: single siRNA against human genes
Time to read-out: 3 days
Read-out: 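Imaged Hoechst DNA stain sorts each cell into a cycle phase by DNA amount; per plate, G2 fraction set to 0% for non-targeting and 100% for GMNN siRNA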
Scale: G2 robust z-score and G2 cells, % of GMNN control: higher = more G2 cells, more excess DNA replication; raw share of cells in G2: higher = larger share of cells with G2 DNA content
Active means: 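An siRNA counts as active if its G2 robust z-score lies at least 5 MADs above the screen median; here such calls match roughly 38% of GMNN control or more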
This is an unselected part of about 59,000 reagents tested. Over the whole deposit, about 1,550 (2.6%) are marked active. 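G2 share is only a proxy for re-replication; each gene was hit by three separate siRNAs, and active genes were retested.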 Raw values vary from plate to plate and are shown uncorrected. Unmarked entries are inactive. The numbers tell different reagents against one gene apart. Not stated in the record: the amount of reagent.

| gene | siRNA no. | G2 robust z-score | G2 cells, % of GMNN control | raw share of cells in G2 (%) |
| --- | --- | --- | --- | --- |
| NUP93 (nucleoporin 93) | 1 | 0.77 | 8.38 | 6.06 |
| NUP93 (nucleoporin 93) | 2 | 1.86 | 16 | 11.3 |
| NUP93 (nucleoporin 93) | 3 | 2.88 | 23.3 | 14.2 |
| COQ6 (coenzyme Q6, monooxygenase) | 1 | -0.336 | 0.603 | 4.03 |
| COQ6 (coenzyme Q6, monooxygenase) | 2 | -0.93 | -3.58 | 2.92 |
| COQ6 (coenzyme Q6, monooxygenase) | 3 | 2.16 | 18.1 | 14.2 |
| GDF11 (growth differentiation factor 11) | 1 | 1.49 | 13.4 | 11.4 |
| GDF11 (growth differentiation factor 11) | 2 | 1.69 | 14.9 | 10.2 |
| GDF11 (growth differentiation factor 11) | 3 | -0.522 | -0.708 | 3.15 |
| ARL3 (ARF like GTPase 3) | 1 | 5.02 (active) | 38.3 | 18.7 |
| ARL3 (ARF like GTPase 3) | 2 | 3.69 | 29 | 14.6 |
| ARL3 (ARF like GTPase 3) | 3 | 0.325 | 5.26 | 5.95 |
| TRAK2 (trafficking kinesin protein 2) | 1 | -0.0795 | 2.41 | 5.63 |
| TRAK2 (trafficking kinesin protein 2) | 2 | -0.407 | 0.104 | 4.66 |
| TRAK2 (trafficking kinesin protein 2) | 3 | 1.95 | 16.7 | 7.1 |
| CIDEB (cell death inducing DFFA like effector b) | 1 | -0.14 | 1.99 | 4.61 |
| CIDEB (cell death inducing DFFA like effector b) | 2 | 1.02 | 10.2 | 8.39 |
| CIDEB (cell death inducing DFFA like effector b) | 3 | 0.715 | 8 | 5.78 |
| PPT2 (palmitoyl-protein thioesterase 2) | 1 | 1.85 | 16 | 10.2 |
| PPT2 (palmitoyl-protein thioesterase 2) | 2 | -0.555 | -0.94 | 4.17 |
| PPT2 (palmitoyl-protein thioesterase 2) | 3 | -1.12 | -4.89 | 3.53 |
| PRELID3B (PRELI domain containing 3B) | 1 | -0.131 | 2.05 | 4.64 |
| PRELID3B (PRELI domain containing 3B) | 2 | 3.72 | 29.1 | 15.6 |
| PRELID3B (PRELI domain containing 3B) | 3 | 0.247 | 4.71 | 4.74 |
| LINC00938 (long independently transcribed non-coding RNA 938) | 1 | 1.88 | 16.2 | 9.71 |
| LINC00938 (long independently transcribed non-coding RNA 938) | 2 | -0.801 | -2.67 | 2.46 |
| LINC00938 (long independently transcribed non-coding RNA 938) | 3 | -0.776 | -2.49 | 3.76 |
| CATSPER2 (cation channel sperm associated 2) | 1 | 0.632 | 7.42 | 7.99 |
| CATSPER2 (cation channel sperm associated 2) | 2 | -0.792 | -2.6 | 3.9 |
| CATSPER2 (cation channel sperm associated 2) | 3 | -0.878 | -3.21 | 3.12 |
| RNF180 (ring finger protein 180) | 1 | 1.65 | 14.6 | 7.69 |
| RNF180 (ring finger protein 180) | 2 | 0.927 | 9.49 | 7.1 |
| RNF180 (ring finger protein 180) | 3 | 6.99 (active) | 52.2 | 23.2 |
| SVOPL (SVOP like) | 1 | 0.937 | 9.56 | 8.72 |
| SVOPL (SVOP like) | 2 | 5.17 (active) | 39.4 | 24.7 |
| SVOPL (SVOP like) | 3 | 1.33 | 12.3 | 9.2 |
| ZNF18 (zinc finger protein 18) | 1 | -0.217 | 1.44 | 4.01 |
| ZNF18 (zinc finger protein 18) | 2 | -0.306 | 0.812 | 6.35 |
| ZNF18 (zinc finger protein 18) | 3 | 0.0398 | 3.25 | 4.7 |
| CAPN15 (calpain 15) | 1 | -0.776 | -2.49 | 4.69 |
| CAPN15 (calpain 15) | 2 | -1.01 | -4.11 | 3.45 |
| CAPN15 (calpain 15) | 3 | -0.763 | -2.4 | 3.01 |
| GREB1 (growth regulating estrogen receptor binding 1) | 1 | -0.566 | -1.02 | 4.87 |
| GREB1 (growth regulating estrogen receptor binding 1) | 2 | 1.64 | 14.5 | 10 |
| GREB1 (growth regulating estrogen receptor binding 1) | 3 | -0.976 | -3.9 | 1.99 |
| H2AC20 (H2A clustered histone 20) | 1 | -0.392 | 0.208 | 5.22 |
| H2AC20 (H2A clustered histone 20) | 2 | 0.651 | 7.54 | 6.89 |
| H2AC20 (H2A clustered histone 20) | 3 | -0.144 | 1.95 | 4.04 |

Copied from the entries so far (8 entries):
| gene | siRNA no. | G2 robust z-score | G2 cells, % of GMNN control | raw share of cells in G2 (%) |
| --- | --- | --- | --- | --- |
| COQ6 (coenzyme Q6, monooxygenase) | 3 | 2.16 | 18.1 | 14.2 |
| GDF11 (growth differentiation factor 11) | 1 | 1.49 | 13.4 | 11.4 |
| GDF11 (growth differentiation factor 11) | 2 | 1.69 | 14.9 | 10.2 |
| GDF11 (growth differentiation factor 11) | 3 | -0.522 | -0.708 | 3.15 |
| ARL3 (ARF like GTPase 3) | 1 | 5.02 (active) | 38.3 | 18.7 |
| ARL3 (ARF like GTPase 3) | 2 | 3.69 | 29 | 14.6 |
| ARL3 (ARF like GTPase 3) | 3 | 0.325 | 5.26 | 5.95 |
| TRAK2 (trafficking kinesin protein 2) | 1 | -0.0795 | 2.41 | 5.63 |
